In PubChem BioAssay AID2810 (NMMLSC, 2010):
The other results are listed elsewhere or left out. Further columns of the screen follow, without active or inactive calls.

Assay: modulators of CD8 T cell-vesicle binding, confirmation, cherry-picked primary hits, two concentrations (AID 2810);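 note: lower values mean blocking of vesicle binding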;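 for percent response (vesicle binding): ratio of mean FL2 vesicle stain of CD8+ cells to that row's control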
Details: 2C CD8+ T cell-vesicle binding, flow cytometry; for double positive events: CD8+/vesicle+ events
[1] = at 15.4 µM, stronger effect = lower value

| SMILES | double positive events (at 7.7 µM) [%] | double positive events [1] [%] | percent response (vesicle binding) (at 7.7 µM) [%] |
| --- | --- | --- | --- |
| O=C1CCCC/C=C\C[C@H](CC(=O)N(CCO)Cc2ccccc2)C(=O)N[C@@H](c2ccccc2)CO1 | 11 | 27.5 | 121 |
| CC(C)C(=O)Nc1ccc(NC(=O)c2ccco2)cn1 | 9 | 24.2 | 357 |
| Oc1ccc(Cl)cc1C=NCCc1ccccc1 | 32.5 | 9.6 | 103 |
| O=C(NNc1nc(-c2ccccc2)c2cc(Br)ccc2n1)c1ccc(S(=O)(=O)N2CCOCC2)cc1 | 16.4 | 31.8 | 218 |
| O=C(Cc1c(Cl)cccc1Cl)Nc1cccc(S(=O)(=O)N2CCOCC2)c1 | 24.9 | 18.9 | 337 |
| Cc1ccc(NC(=O)NNC(=O)C2CCN(Cc3ccc(F)cc3Cl)CC2)cc1 | 28.7 | 28.7 | 319 |
| CN(C)CCNc1oc(-c2ccccc2Cl)nc1S(=O)(=O)c1ccccc1 | 17.2 | 29.5 | 569 |
| CCc1noc(C)c1C(=O)Oc1ccc(N(C)S(=O)(=O)c2ccccc2)cc1 | 12.4 | 32.1 | 162 |
| COc1ccccc1NC(=O)CSc1nnc(Cc2cccn2C)n1-c1ccc(F)cc1 | 13.9 | 16.3 | 273 |
| CCOC(=O)c1[nH]c(C)c(C(=O)N(CC)CC)c1C | 9.3 | 10.8 | 175 |
| CCCCN1C(=O)NC(NC(=O)C2CC2)(C(F)(F)F)C1=O (configuration not stated) | 3.3 | 14.6 | 71.3 |
| CC1CCC(NC(=O)CN2C(=O)NC3(CCCCCC3)C2=O)CC1 (configuration not stated) | 12.3 | 31.7 | 303 |
| COc1ccc(CCNS(=O)(=O)c2ccc(S(=O)(=O)N3CCCC3)cc2)cc1OC | 15 | 23 | 183 |
| COc1ccc(OC)c(NC(=O)CCN2CCCCC2)c1 | 29.4 | 27.5 | 442 |
| Cc1nnc(Cl)c2nn(-c3ccccc3F)c(C)c12 | 10.2 | 7.4 | 150 |
| CCSc1nnc(NC(=O)CSc2sc3c(O)cc(=O)[nH]c3c2C#N)s1 | 8.5 | 31.7 | 210 |
| O=C(NCCOc1ccccc1Cl)c1cccc2c1C(=O)c1ccc(Cl)cc1S2(=O)=O | 16.7 | 15.2 | 193 |
| Cc1cccc(N2C(=O)CCC2=O)c1 | 11.4 | 17.2 | 170 |
| Cc1cccc(-n2ncc3c(N4CCCC4)ncnc32)c1 | 44.5 | 15.3 | 619 |
| CCC1(c2ccccc2)NC(=O)N(CC(=O)Nc2cc(Cl)ccc2N2CCN(C)CC2)C1=O (configuration not stated) | 11.6 | 18.5 | 475 |
| COc1ccc(S(=O)(=O)N(C)C2(C)CCS(=O)(=O)C2)cc1OC (configuration not stated) | 10.4 | 17.4 | 423 |

| SMILES | double positive events (at 7.7 µM) [%] | double positive events [1] [%] | percent response (vesicle binding) (at 7.7 µM) [%] |
| --- | --- | --- | --- |
| NS(=O)(=O)c1ccc(NC(=O)NC2CCCCC2)cc1 | 11.8 | 43.8 | 232 |
| COc1ccc(SC[C@H](C)CN2CC[C@H](C(C)(C)C)CCC2=O)cc1 | 24.2 | 21.8 | 379 |
| COc1ccccc1N1CCN(/N=C\c2sccc2C)CC1 | 17.9 | 14.6 | 213 |
| Cc1ccc(C(=O)OC(C(=O)Nc2ccc(Cl)cc2C(F)(F)F)c2ccccc2)cc1 (configuration not stated) | 35 | 9.3 | 418 |
| O=C(NNC(=O)c1ccccc1[N+](=O)[O-])c1ccco1 | 29.4 | 17.4 | 235 |
| O=C(CN1C(=O)NC2(CCCCCC2)C1=O)N1CCN(c2ccc(F)cc2)CC1 | 16.5 | 16.9 | 232 |
| Cc1ccc(C(=O)NC(=S)Nn2cnnc2)cc1 | 18.9 | 29.3 | 472 |
| Cn1nccc1C(=O)Nc1ccn(C23CC4CC(CC(C4)C2)C3)n1 | 33.3 | 14.4 | 297 |
| COc1ccc([N+](=O)[O-])cc1NC(=O)CCC(=O)c1cccs1 | 21.7 | 29.1 | 238 |
| CCOc1cc(NC(=S)Nc2ccc(Cl)cc2)c(OCC)cc1NC(C)=O | 14.6 | 21.4 | 150 |
| O=C(COC(=O)CNC(=O)C1CCCCC1)Nc1ccccc1 | 7.5 | 12.7 | 307 |
| CCN(CC)c1ccc(NC(=O)C2=CC=CN3CCS(=O)(=O)N=C23)cc1 | 11.7 | 13.1 | 108 |
| NC(=O)Nc1ccccc1C(=O)NCCc1ccccc1 | 40.9 | 34.1 | 358 |
| CCCCCOC(=O)Nc1ccc(S(=O)(=O)Nn2cnnc2)cc1 | 36.5 | 17.4 | 315 |
| Cc1ccc(O)c([C@H](CCN(C(C)C)C(C)C)c2ccccc2)c1 | 14.3 | 9.3 | 247 |
| C=CCC1(CC=C)CCCN1C(=O)C1CCC(=O)N(CCc2ccccc2)C1 (configuration not stated) | 10.4 | 23.6 | 200 |
| COc1ccc(OCC(=O)NNC(=O)C(=O)N2CCCC2)cc1 | 24.8 | 9.2 | 499 |
| O=C(Nc1ccccc1Cl)Oc1ccc(Cl)cc1Cl | 23.6 | 11.4 | 337 |
| CCOC(=O)N1CCN(C(=O)c2ccc(CS(=O)Cc3ccc(C)cc3)o2)CC1 (configuration not stated) | 10.3 | 8.1 | 156 |
| CC(=O)N1CCC(=NNC(=O)c2cccs2)CC1 | 14.7 | 32.8 | 107 |
| CNC(=S)Nc1cccc(C(=O)OC)c1 | 31.2 | 12.8 | 453 |

| SMILES | double positive events (at 7.7 µM) [%] | double positive events [1] [%] | percent response (vesicle binding) (at 7.7 µM) [%] |
| --- | --- | --- | --- |
| CN(C)S(=O)(=O)N1CCN(S(=O)(=O)N(C)C)CC1 | 22.4 | 30.2 | 311 |
| Cc1ccc(CNC(=O)C(=O)NCC2OCCN2C(=O)c2cccs2)cc1 (configuration not stated) | 12.2 | 11.1 | 444 |
| COc1ccccc1CCNC(=O)C(=O)Nc1cc2c3c(c1)C(C)C(=O)N3CCC2 (configuration not stated) | 10.6 | 15.6 | 152 |
| CCOC(=O)NC(=S)Nc1ccc(C(C)(C)C)cc1 | 10.8 | 9 | 388 |
| CCCCNc1c(-c2ccc(OC)c(SC3CCCCC3)c2)nc2ccc(C)cn12 | 44.4 | 15.9 |  |
| CC(C)(C)OC(=O)NCc1ccc(CNC(=O)c2nc[nH]c2C(=O)NCc2ccccc2)cc1 | 14.4 | 6.2 | 401 |
| COc1ccccc1NC(=O)COC(=O)c1cc(C)nc2ccccc12 | 20.3 | 17.6 | 123 |
| CCC1CCCCN1CCCNC(=O)CS(=O)Cc1nc(-c2ccc(OC)c(OC)c2)oc1C (configuration not stated) | 8.2 | 17.1 | 446 |
| O=C(NN1CCOCC1)c1cccc2ccccc12 | 16.2 | 33.9 | 95.8 |
| S=C(NCCc1ccc(Cl)cc1)NC1CCCCC1 | 13.8 | 34 | 537 |
| COC(=O)c1ccc(COc2ccc(-c3nnn(CC(N)=O)n3)cc2)cc1 | 31 | 25.4 | 258 |
| COc1ccc(NC(=O)C(OC(=O)c2ccc([N+](=O)[O-])o2)c2ccccc2)cc1Cl (configuration not stated) | 9.1 | 29.2 | 116 |
| CCNS(=O)(=O)c1ccc(NC(=O)c2cc(C(F)(F)F)nn2C)cc1 | 19.9 | 24.9 | 259 |
| Cc1cc(C)c2cc(C#N)c(SCC(=O)NCC3CCCO3)nc2c1 (configuration not stated) | 20.9 | 23.3 | 911 |
| CNC(=O)Cc1nc2ccccc2n1CC(=O)Nc1cc(C)cc(C)c1 | 10 | 8 | 151 |
| CC(C)(C)OC(=O)N1CCN(C(=O)c2nc[nH]c2C(=O)N2CCN(c3ccccc3)CC2)CC1 | 9.7 | 37.3 | 95 |
| N/C(Cc1ccc([N+](=O)[O-])cc1)=N\OC(=O)c1ccccc1Br | 11 | 20.3 | 453 |
| O=C(Nc1ccccc1F)C1CCCN(S(=O)(=O)c2cccc3cccnc23)C1 (configuration not stated) | 12 | 4.2 | 550 |
| COC(=O)CN(c1ccc(C)cc1)S(=O)(=O)c1c(C)[nH]c(=O)[nH]c1=O | 17.3 | 14.4 | 207 |
| COc1ccc2cc3c(N)nn(C(=O)c4ccccc4[N+](=O)[O-])c3nc2c1 | 25.1 | 12 | 292 |
| N#C/C(=C\c1cccnc1)C(=O)Nc1cccc(Cl)c1 | 7.8 | 22.3 | 288 |

Rewritten with tabs: 2 of the compounds above.
SMILES	double positive events (at 7.7 µM) [%]	double positive events [1] [%]	percent response (vesicle binding) (at 7.7 µM) [%]
Cc1ccc(C(=O)NC(=S)Nn2cnnc2)cc1	18.9	29.3	472
Cn1nccc1C(=O)Nc1ccn(C23CC4CC(CC(C4)C2)C3)n1	33.3	14.4	297

The listing continues:

| SMILES | double positive events (at 7.7 µM) [%] | double positive events [1] [%] | percent response (vesicle binding) (at 7.7 µM) [%] |
| --- | --- | --- | --- |
| CC(C)COC(=O)n1c(=O)oc2cc(S(=O)(=O)N3CCCCC3)ccc21 | 14.5 | 16.5 | 372 |
| CCOc1cc(C(=O)Nc2ccccc2N2CCOCC2)ccc1OCC(=O)N1CCOCC1 | 33.3 | 13.4 | 180 |
| CCOC(=O)c1[nH]c(C)c(C(=O)N2CCOCC2)c1C | 12.8 | 18.2 | 251 |
| Cc1ccc(NC(=O)c2ccccc2OCc2c(C)noc2C)cc1S(=O)(=O)N(C)C | 22.5 | 22.8 | 269 |
| CCc1ccc(C(=O)COC(=O)CNC(=O)Cc2ccccc2)cc1 | 20.9 | 17.3 | 191 |
| Cc1nn(C)c(C)c1NC(=O)COc1ccc(Cl)cc1 | 16 | 17.1 | 193 |
| C[C@H](CO)N1C[C@H](C)[C@H](CN(C)S(=O)(=O)c2cn(C)cn2)Oc2ccc(NC(=O)Nc3ccc(C(F)(F)F)cc3)cc2CC1=O | 9.6 | 16 | 312 |
| O=C(NCc1ccc2c(c1)OCO2)C1CCCN1C(=O)Nc1cccc(Cl)c1 (configuration not stated) | 12 | 18.3 | 190 |
| O=C(NN1C(=O)C2C3C=CC(O3)C2C1=O)c1cccc(O)c1 (configuration not stated) | 14.5 | 26.8 | 263 |
| O=C(c1ccc(COc2ccc(F)cc2)o1)n1cc(Br)cn1 | 26.8 | 22.7 | 154 |
| CCOC(=O)Cc1csc(NC(=O)CSc2nnc(C(C)C)n2CC)n1 | 20.5 | 14.3 | 162 |
| CN(Cc1ccc(Cl)cc1)C(=O)COC(=O)CSc1ccc([N+](=O)[O-])cc1 | 6.9 | 10.7 | 214 |
| Cn1c2ccccc2c2cc(/C=C(\NC(=O)c3ccccc3)C(=O)NCC(=O)O)ccc21 | 16.5 | 31.2 | 306 |
| O=C(NC(Cc1ccccc1)C(=O)O)/C(=C\c1ccco1)NC(=O)c1ccccc1Br (configuration not stated) | 8.2 | 6.9 | 161 |
| CC(NC(=O)CN(C)S(=O)(=O)c1ccc(F)cc1)C1CC2CCC1C2 (configuration not stated) | 12.1 | 28.6 | 139 |
| COc1ccc(NC(=O)CSCC(=O)Nc2cccc(S(=O)(=O)N3CCCCCC3)c2)cc1 | 11.1 | 19.3 | 179 |
| C=CCn1c(NCCOC)nc2c1c(=O)n(C)c(=O)n2C | 14.9 | 26.1 | 204 |
| COc1ccc(C2(C(=O)Nc3ccc(OC)cc3OC)CCCC2)cc1 | 15.5 | 15.2 | 457 |

Taken from above.
Entry of CNC(=S)Nc1cccc(C(=O)OC)c1 under percent response (vesicle binding) (at 7.7 µM) [%]: 453
Entry of Cn1nccc1C(=O)Nc1ccn(C23CC4CC(CC(C4)C2)C3)n1 under double positive events [1] [%]: 14.4
Entry of Cn1c2ccccc2c2cc(/C=C(\NC(=O)c3ccccc3)C(=O)NCC(=O)O)ccc21 under double positive events (at 7.7 µM) [%]: 16.5
